Here are results for 30 molecules from the supplement of paper PMC12889115.

This experiment deals with Salmonella enterica serovar Typhimurium SL1344. Nature of the experiment: bacterial growth OD600 after 18 h with compound and polymyxin B; higher = more bacterial growth (less inhibition). As to conditions: 50 µM, Mueller-Hinton broth.

Structures are written as SMILES. This is one part of the list. These are raw signals, not scaled to a control.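 In the initial screen, polymyxin B was used at a concentration that permeabilizes Salmonella's outer membrane but not its inner membrane. Maximum growth was set by DMSO wells with or without polymyxin B. Since plates varied, data were ranked per plate, and compounds giving the lowest OD600 advanced as hits.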

Regarding `COC(=O)[C@@H](NC1CCN(c2ccc(NC(=O)COc3ccccc3)cc2)CC1)c1ccccc1`, under “polymyxin B 0.75 µg/mL”, the “bacterial growth OD600” value is 0.76.

For the molecule `COc1cc(CC2(CCC(=O)NCC3CCCCC3)CCC(=O)N2)ccc1F` (stereo not given), the “bacterial growth OD600” value (polymyxin B 0.75 µg/mL) came out at 0.848.

On to `Cc1cc(CN(C)CC2(O)CCCN(Cc3cccc(F)c3F)C2=O)on1` (stereo not given), for which the “bacterial growth OD600” value (polymyxin B 1 µg/mL) worked out at 0.878.

As to `OC(COc1cccc(CNC2CCCC2)c1)CN1CCCCCC1` (stereo not given), the “bacterial growth OD600” value (polymyxin B 0.75 µg/mL) is 0.877.

For `CS(=O)(=O)N1CCC(Oc2ccc(C(=O)N3CCCCCC3)cc2Cl)CC1`, the “bacterial growth OD600” value (polymyxin B 0.75 µg/mL) came out at 0.788.

With `CO[C@H]1[C@H](NC(=O)c2ccncc2)c2ccccc2C12CCN(C(=O)CCn1nc(C)cc1C)CC2`, the “bacterial growth OD600” value (polymyxin B 0.75 µg/mL) stood at 0.836.

As to `CCc1ccc(CN2CCN(Cc3cc(OC)cc(OC)c3)C(CCO)C2)cc1` (stereo not given), the “bacterial growth OD600” value (polymyxin B 1 µg/mL) came to 1.05.

Consider `CCOC(=O)C1(CCCc2ccccc2)CCN(C(=O)CCN2CCCCO2)CC1`, for which the “bacterial growth OD600” value (polymyxin B 1 µg/mL) turned out to be 1.02.

`CCOC(=O)C1(CCc2ccccc2)CCN(C(=O)CCc2ccncc2)CC1`: under “polymyxin B 1 µg/mL”, the “bacterial growth OD600” value is 0.705.

Consider `O=C(CC(c1cccc(O)c1)c1cccc(Cl)c1)NC1CC1` (stereo not given), for which the “bacterial growth OD600” value (polymyxin B 1 µg/mL) is 1.17.

For the molecule `CCOC(=O)N1CCN(C2CCCN(Cc3cccn3-c3nccs3)C2)CC1` (stereo not given), under “polymyxin B 1 µg/mL”, the “bacterial growth OD600” value was 1.01.

`COc1ccccc1C(=O)Nc1cccc(N2CCC(NC(C)c3cnn(-c4ccccc4)c3)CC2)c1` (stereo not given): the “bacterial growth OD600” value (polymyxin B 0.75 µg/mL) was determined as 0.838.

Consider `Cc1ncoc1C(=O)NC1CC(C)(C)Cc2c1cnn2-c1ccc(F)cc1` (stereo not given), for which, for the setting “polymyxin B 1 µg/mL”, the “bacterial growth OD600” value turned out to be 0.976.

In the case of `O=C1NCCN1c1ccc(CN2CCCC(CO)(Cc3ccc(F)cc3)C2)cc1` (stereo not given), the “bacterial growth OD600” value (polymyxin B 0.75 µg/mL) amounted to 0.849.

For the molecule `CCc1nnc(SCC(=O)N2CCCC(C(=O)c3ccc4c5c(cccc35)CC4)C2)o1` (stereo not given), for the setting “polymyxin B 1 µg/mL”, the “bacterial growth OD600” value was determined as 0.021.

For `COc1ccccc1C(=O)Nc1cccc(N2CCC(NCc3ccc(Cl)s3)CC2)c1`, the “bacterial growth OD600” value (polymyxin B 0.75 µg/mL) amounted to 0.708.

`O=C(c1ccccc1OC1CCN(Cc2ccccc2Cl)CC1)N1CCCCC1`: the “bacterial growth OD600” value (polymyxin B 1 µg/mL) worked out at 1.06.

Regarding `C=CCS(=O)(=O)N1C[C@H]2OC(=O)N(CCc3ccc(F)cc3)[C@H]2C1`, the “bacterial growth OD600” value (polymyxin B 0.75 µg/mL) came to 0.764.

Take `O=C(c1scc2c1OCCO2)N1CCc2onc(-c3cccc(F)c3)c2C1`: the “bacterial growth OD600” value (polymyxin B 0.75 µg/mL) was found to be 0.447.

On to `Cc1cccc(-n2cc(CNCC3COCCO3)c(-c3cccc(F)c3)n2)c1` (stereo not given), for which the “bacterial growth OD600” value (polymyxin B 1 µg/mL) was 0.865.

As to `O=C1O[C@@H]2CN(Cc3ccccc3)C[C@@H]2N1C1CCCC1`, the “bacterial growth OD600” value (polymyxin B 0.75 µg/mL) worked out at 0.736.

For `CN(CCc1nc2ccccc2[nH]1)C(=O)c1cc(COc2cccc(F)c2)[nH]n1`, the “bacterial growth OD600” value (polymyxin B 1 µg/mL) was determined as 1.02.

Consider `CN(C)C(=O)CCC(=O)N1CCCC(C(=O)c2ccc3c4c(cccc24)CC3)C1` (stereo not given), for which the “bacterial growth OD600” value (polymyxin B 0.75 µg/mL) was 0.498.

With `C#Cc1cccc(C(=O)N2CCOC(CCc3ccccc3)C2)c1` (stereo not given), the “bacterial growth OD600” value (polymyxin B 0.75 µg/mL) was determined as 0.002.

Turning to `CCCCN(Cc1ccccc1)C(=O)CCC1(Cc2ccc(SC)cc2)CCC(=O)N1` (stereo not given), the “bacterial growth OD600” value (polymyxin B 0.75 µg/mL) was 0.019.

In the case of `CCN(CC)C(=O)C1CCCN(C2CCN(C(=O)C3CC3)CC2)C1` (stereo not given), the “bacterial growth OD600” value (polymyxin B 0.75 µg/mL) turned out to be 0.956.

`Cc1nn(C)cc1CN(C)C(=O)CC1(c2ccccc2)CC(=O)N(Cc2cccs2)C1=O` (stereo not given): the “bacterial growth OD600” value (polymyxin B 0.75 µg/mL) stood at 0.852.

For the molecule `COc1ccc(CNC(=O)CCC2CCCN(Cc3cccc(F)c3F)C2)c(OC)c1` (stereo not given), for the setting “polymyxin B 1 µg/mL”, the “bacterial growth OD600” value worked out at 0.824.

Take `CC(C)(C)C(=O)Nc1ccnn1C1CCN(Cc2ccccc2OCCO)CC1`: under “polymyxin B 0.75 µg/mL”, the “bacterial growth OD600” value was 0.809.

Turning to `Cc1ncc2c(c1CNS(=O)(=O)c1cccs1)CCN(C(=O)c1cccc3c(C)c(C)[nH]c13)C2`, the “bacterial growth OD600” value (polymyxin B 0.75 µg/mL) worked out at 0.765.
